Experimental data: PubChem BioAssay AID328 (DTP/NCI, 2004)
The list does not hold the whole screen: it is rich in T/C values a quarter to a half above the control, in often repeated tests (any T/C) and in doses without a T/C. Other doses and runs of a compound stand elsewhere. T/C: endpoint of the treated group in % of that of the vehicle group. Some doses have a count of surviving animals in place of a T/C: the source holds a T/C of zero for them, seemingly a mark for toxic or unscored doses. Some doses without a T/C left all or most animals alive at the check, yet need not have been tolerated: survival well below the control is almost never listed, so the zero probably covers shortened survival too. Counts of survivors are from the toxicity check (mostly the fifth day) where no day follows; animals may have died later. Schedule codes are those of the source, read here as Q, the interval in days (D) or hours (H), X, the number of doses. Some entries hold several experiments; the values are given in rising order. Brackets with × count equal records among those shown. For survival time, this PubChem deposit counts one and a half times the control or more as active, and values a quarter to a half above the control carry no call in these data; other NCI protocols may use other cut-offs. Some T/C values carry the count of animals alive at the toxicity check (mostly the fifth day); where none is given, no animal had died by that day.

Test system: BDF1 mice, P388 leukemia ip, median survival T/C
Experiment: NCI In Vivo Anticancer Drug Screen. Data for tumor model P388 Leukemia (intraperitoneal) in B6D2F1 (BDF1) mice
Conditions: T/C endpoint: median survival time, higher T/C = longer survival
Method in brief: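 T/C = treated-group survival ÷ vehicle-control survival; tumour transplanted into mice before dosing.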

[1] = dose: 200.0 mg/kg/injection, schedule: Q01DX009 (ip), vehicle: Klucel (hydroxypropylcellulose) (HPC)

With `O=P1(N(CCCl)CCCl)NCCCO1` (stereo unspecified) the T/C [1] was 91 % of control, the survivor count [1] was 0 of 6, 1 of 3, 3 of 6, 2 of 3, 4 of 6, 5 of 6, 3 of 3, 6 of 6 and the survivor count (dose: 200.0 mg/kg/injection, schedule: Q01DX009 (ip), vehicle: saline) was 7 of 7. The T/C (dose: 200.0 mg/kg/injection, schedule: Q04DX002 (ip), vehicle: Klucel (hydroxypropylcellulose) (HPC), evaluated on day 30) was 87, 99, 116, 132 [5 of 6 alive], 135, 155, 166, 172, 174, 199, 205, 211, 217, 224, 235, 238, 247, 252 (2×), 253, 255, 258 (2×), 270 (2×), 272 (2×), 277, 285, 291 (2×), 293 % of control, the T/C (dose: 200.0 mg/kg/injection, schedule: Q04DX002 (ip), vehicle: Klucel (hydroxypropylcellulose) (HPC), evaluated on day 35) was 224 % of control and the survivor count (dose: 200.0 mg/kg/injection, schedule: Q04DX002 (ip), vehicle: Klucel (hydroxypropylcellulose) (HPC)) was 2 of 3. For the same compound, the T/C (dose: 200.0 mg/kg/injection, schedule: Q04DX003 (ip), vehicle: Klucel (hydroxypropylcellulose) (HPC), evaluated on day 30) was 86, 91, 92, 94, 100, 104, 107 (2×), 108, 109, 110, 111, 115, 118, 120, 122, 125, 127, 128, 129, 136, 138, 158, 160, 200, 217, 219, 228, 232, 236, 253, 270 % of control, the T/C (dose: 200.0 mg/kg/injection, schedule: Q04DX003 (ip), vehicle: Klucel (hydroxypropylcellulose) (HPC), evaluated on day 35) was 209 and 276 % of control and the survivor count (dose: 200.0 mg/kg/injection, schedule: Q04DX003 (ip), vehicle: Klucel (hydroxypropylcellulose) (HPC)) was 3 of 3 and 6 of 6. The survivor count (dose: 200.0 mg/kg/injection, schedule: Q04DX003 (ip), vehicle: water) was 6 of 6, the T/C (dose: 250.0 mg/kg/injection, schedule: Q01DX001 (ip), vehicle: saline, evaluated on day 5) was 286, 372, 559 % of control and the T/C (dose: 250.0 mg/kg/injection, schedule: Q01DX001 (ip), vehicle: saline, evaluated on day 35) was 349 % of control. The T/C (dose: 250.0 mg/kg/injection, schedule: Q01DX001 (ip), vehicle: saline, evaluated on day 60) was 177 % of control, the T/C (dose: 300.0 mg/kg/injection, schedule: Q01DX001 (ip), vehicle: saline, evaluated on day 5) was 111, 113, 116, 150, 172, 243, 303, 345, 350, 481, 555, 587 % of control and the T/C (dose: 300.0 mg/kg/injection, schedule: Q01DX001 (ip), vehicle: saline, evaluated on day 34) was 105 % of control. The T/C (dose: 300.0 mg/kg/injection, schedule: Q01DX001 (ip), vehicle: saline, evaluated on day 46) was 338 % of control, the T/C (dose: 300.0 mg/kg/injection, schedule: Q01DX001 (ip), vehicle: saline, evaluated on day 60) was 102, 111, 113, 116, 150, 169, 243, 303, 350, 482, 486, 530 (2×), 545, 554, 555, 571, 587 % of control and the T/C (dose: 400.0 mg/kg/injection, schedule: Q01DX001 (ip), vehicle: Klucel (hydroxypropylcellulose) (HPC), evaluated on day 30) was 100, 104 [4 of 6 alive], 105 [5 of 6 alive], 107 [2 of 3 alive], 117 [5 of 6 alive], 118 [5 of 6 alive], 120, 135, 136, 151 [4 of 6 alive], 152, 176 [2 of 3 alive], 183 [5 of 6 alive], 214, 243 [4 of 6 alive], 245, 264, 270 [5 of 6 alive], 272, 275, 285 % of control [2 of 3 alive]. The T/C (dose: 400.0 mg/kg/injection, schedule: Q01DX001 (ip), vehicle: Klucel (hydroxypropylcellulose) (HPC), evaluated on day 35) was 95 and 156 % of control, the survivor count (dose: 400.0 mg/kg/injection, schedule: Q01DX001 (ip), vehicle: Klucel (hydroxypropylcellulose) (HPC)) was 1 of 3, 2 of 6, 3 of 6, 2 of 3 and the T/C (dose: 400.0 mg/kg/injection, schedule: Q01DX001 (ip), vehicle: saline, evaluated on day 5) was 675 % of control [4 of 5 alive]. The T/C (dose: 400.0 mg/kg/injection, schedule: Q01DX001 (ip), vehicle: saline, evaluated on day 9) was 297 % of control, the T/C (dose: 400.0 mg/kg/injection, schedule: Q01DX001 (ip), vehicle: saline, evaluated on day 30) was 117 and 283 % of control and the T/C (dose: 400.0 mg/kg/injection, schedule: Q01DX001 (ip), vehicle: saline, evaluated on day 35) was 343 % of control (2×). For the same compound, the T/C (dose: 400.0 mg/kg/injection, schedule: Q01DX001 (ip), vehicle: saline, evaluated on day 40) was 396 % of control, the survivor count (dose: 400.0 mg/kg/injection, schedule: Q01DX001 (ip), vehicle: saline) was 3 of 10, 3 of 6, 4 of 6, 7 of 8 and the T/C (dose: 400.0 mg/kg/injection, schedule: Q04DX002 (ip), vehicle: Klucel (hydroxypropylcellulose) (HPC), evaluated on day 30) was 87, 90, 91, 94, 96, 99 [2 of 3 alive], 102, 105, 106, 258 (2×), 275, 290 % of control. For the same compound, the T/C (dose: 400.0 mg/kg/injection, schedule: Q04DX002 (ip), vehicle: Klucel (hydroxypropylcellulose) (HPC), evaluated on day 35) was 86 % of control, the survivor count (dose: 400.0 mg/kg/injection, schedule: Q04DX002 (ip), vehicle: Klucel (hydroxypropylcellulose) (HPC)) was 0 of 6, 1 of 6, 1 of 3, 2 of 3, 4 of 6, 5 of 6, 3 of 3, 6 of 6 and the T/C (dose: 400.0 mg/kg/injection, schedule: Q04DX003 (ip), vehicle: Klucel (hydroxypropylcellulose) (HPC), evaluated on day 30) was 87, 88, 89, 90, 91, 93, 95, 112 % of control. For the same compound, the T/C (dose: 400.0 mg/kg/injection, schedule: Q04DX003 (ip), vehicle: Klucel (hydroxypropylcellulose) (HPC), evaluated on day 35) was 93 % of control, the survivor count (dose: 400.0 mg/kg/injection, schedule: Q04DX003 (ip), vehicle: Klucel (hydroxypropylcellulose) (HPC)) was 1 of 3, 3 of 6, 2 of 3, 4 of 6, 5 of 6, 3 of 3, 6 of 6 (2×) and the survivor count (dose: 400.0 mg/kg/injection, schedule: Q04DX003 (ip), vehicle: saline) was 2 of 6. The survivor count (dose: 400.0 mg/kg/injection, schedule: Q04DX003 (ip), vehicle: water) was 4 of 6, the survivor count (dose: 500.0 mg/kg/injection, schedule: Q01DX001 (ip), vehicle: saline) was 3 of 6 and the survivor count (dose: 600.0 mg/kg/injection, schedule: Q01DX001 (ip), vehicle: saline) was 8 of 8.
